Data as given in PubChem BioAssay AID652243 (Drosophila RNAi Screening Center, 2013)

Purpose: 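Fly genes required for human androgen receptor driven transcription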 (primary screen)
System: Drosophila S2R+ cells
Knock-down reagent: long dsRNA against Drosophila genes
Timing: 72 h (48 h, then 24 h hormone)
Challenge: synthetic androgen R1881 at 10 nM for 24 h
Detection: 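Per-well raw luminescence of the androgen-driven firefly reporter and of the Renilla control, two replicates each, without normalisation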
Reading the numbers: firefly reporter light: higher = more light from androgen-responsive reporter; Renilla control light: higher = more constitutive control signal (cell number, transfection)
Rule for the call: 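Across duplicate plates, a knock-down whose log firefly/Renilla ratio shifted a set fold down or up from the GFP/LacZ control mean was a hit; the downward cut appears as both 1.5 and 3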
Calls: active = hit: reporter lowered or raised; inactive = no hit
The deposit covers about 24,000 reagents; shown is a random part of those with a known target gene and a result. Of all reagents, 246 (1%) were called active. 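Plates not normalised; calls are printed but the firefly/Renilla ratio behind them is not deposited; fold cut for lowering reported inconsistently.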 Raw values vary from plate to plate and are shown uncorrected. Reagents against one gene are numbered here. Names joined by + are all predicted targets of the reagent. The record does not give: the amount of reagent.

| Target gene | reagent no. | firefly reporter light, replicate 1 | firefly reporter light, replicate 2 | Renilla control light, replicate 1 | Renilla control light, replicate 2 | call |
| --- | --- | --- | --- | --- | --- | --- |
| CG5510 | 1 | 1.99e5 | 2.83e5 | 2.43e6 | 2.10e6 | inactive |
| jtb | 1 | 68976 | 70117 | 1.14e6 | 1.14e6 | inactive |
| CG14881 | 1 | 95170 | 1.29e5 | 1.44e6 | 1.95e6 | inactive |
| CG14881 | 2 | 2.52e5 | 4.08e5 | 8.92e5 | 7.71e5 | inactive |
| CG1907 | 1 | 89630 | 89701 | 1.32e6 | 9.55e5 | active |
| CG5653 | 1 | 1.70e5 | 1.49e5 | 1.99e6 | 1.44e6 | inactive |
| CG5653 | 2 | 5.77e5 | 4.32e5 | 1.08e6 | 1.56e6 | inactive |
| gce | 1 | 3.22e5 | 4.40e5 | 3.23e6 | 4.25e6 | inactive |
| gce | 2 | 2.94e5 | 2.79e5 | 1.79e6 | 1.78e6 | inactive |
| gce | 3 | 1.45e6 | 9.79e5 | 6.05e5 | 5.36e5 | inactive |
| gce | 4 | 6.74e5 | 3.16e5 | 6.04e5 | 5.73e5 | inactive |
| Cpr62Bc | 1 | 1.39e5 | 1.81e5 | 2.15e6 | 2.59e6 | inactive |
| Cpr62Bc | 2 | 4.09e5 | 2.04e5 | 4.15e5 | 3.48e5 | inactive |
| RpS28b | 1 | 1.08e5 | 1.15e5 | 6.81e5 | 5.31e5 | inactive |
| RpS28b | 2 | 3.61e5 | 2.83e5 | 9.97e5 | 1.01e6 | inactive |
| Trf5 | 1 | 9.20e5 | 8.24e5 | 1.90e6 | 1.84e6 | inactive |
| Pstk + Tim9b | 1 | 84075 | 61093 | 6.37e5 | 4.36e5 | inactive |
| Pstk + Tim9b | 2 | 3.14e5 | 2.09e5 | 8.38e5 | 6.00e5 | inactive |
| Pstk + Tim9b | 3 | 7.66e5 | 7.71e5 | 1.69e6 | 1.38e6 | inactive |
| mon2 | 1 | 1.41e5 | 2.54e5 | 1.32e6 | 1.83e6 | inactive |
| Cht10 | 1 | 8.47e5 | 6.97e5 | 1.55e6 | 1.47e6 | inactive |
| Cht10 | 2 | 3.02e5 | 2.36e5 | 1.94e6 | 2.07e6 | inactive |
| Cht10 | 3 | 2.13e5 | 2.81e5 | 1.34e6 | 1.28e6 | inactive |
| CG12951 | 1 | 78490 | 1.01e5 | 2.58e6 | 2.37e6 | inactive |
| CG12951 | 2 | 1.07e6 | 1.02e6 | 1.47e6 | 1.30e6 | inactive |
| CG6126 | 1 | 68554 | 76467 | 3.30e5 | 5.19e5 | inactive |
| Mocs2A + Mocs2B | 1 | 5.11e5 | 4.26e5 | 2.62e6 | 3.73e6 | inactive |
| Mocs2A + Mocs2B | 2 | 1.93e5 | 1.61e5 | 2.10e6 | 2.12e6 | inactive |
| CG7131 | 1 | 58657 | 74052 | 8.57e5 | 6.55e5 | inactive |
| CG7131 | 2 | 3.79e5 | 3.67e5 | 1.19e6 | 9.95e5 | inactive |
| LKRSDH | 1 | 1.23e6 | 1.21e6 | 2.98e6 | 3.00e6 | inactive |
| LKRSDH | 2 | 5.97e5 | 6.05e5 | 8.01e5 | 9.13e5 | inactive |
| MED1 | 1 | 32740 | 27663 | 4.30e5 | 2.73e5 | inactive |
| Arfrp1 | 1 | 1.84e5 | 1.97e5 | 7.98e5 | 9.53e5 | inactive |
| Rpn13R | 1 | 3.80e5 | 4.24e5 | 3.01e6 | 2.62e6 | inactive |
| Rpn13R | 2 | 1.43e6 | 1.24e6 | 1.07e6 | 1.13e6 | inactive |
| CG17625 | 1 | 1.92e5 | 2.36e5 | 2.82e6 | 2.41e6 | inactive |
| CG18336 | 1 | 2.98e5 | 2.09e5 | 1.71e6 | 1.35e6 | inactive |
| hdly | 1 | 2.90e5 | 3.92e5 | 3.23e6 | 2.99e6 | inactive |
| CG11317 | 1 | 1.04e5 | 1.52e5 | 8.02e5 | 5.96e5 | inactive |
| nyo | 1 | 2.03e5 | 2.10e5 | 2.30e6 | 2.72e6 | inactive |
| nyo | 2 | 1.83e5 | 1.34e5 | 1.04e6 | 1.13e6 | inactive |
| UbcE2M | 1 | 1.15e6 | 1.02e6 | 1.32e6 | 2.02e6 | inactive |
| WASp | 1 | 1.66e5 | 1.74e5 | 2.83e6 | 2.92e6 | inactive |
| WASp | 2 | 3.66e5 | 3.84e5 | 4.55e5 | 5.26e5 | inactive |
| FRG1 | 1 | 2.19e5 | 1.41e5 | 3.05e6 | 1.54e6 | inactive |
| Fas3 | 1 | 1.75e5 | 1.61e5 | 1.14e6 | 9.43e5 | inactive |
| Fas3 | 2 | 9.40e5 | 1.22e6 | 1.97e6 | 2.67e6 | inactive |
| Fas3 | 3 | 5.13e5 | 3.92e5 | 1.20e6 | 1.26e6 | inactive |
| CG32017 | 1 | 6.65e5 | 6.78e5 | 1.20e6 | 7.84e5 | inactive |
| CG31109 | 1 | 3.14e5 | 3.23e5 | 3.52e6 | 3.12e6 | inactive |
| PCNA | 1 | 1.32e6 | 1.02e6 | 1.71e6 | 1.47e6 | inactive |
| CngA | 1 | 46309 | 57217 | 7.63e5 | 7.63e5 | inactive |
| CngA | 2 | 1.37e5 | 1.22e5 | 1.79e6 | 1.79e6 | inactive |
| CngA | 3 | 9.47e5 | 6.04e5 | 1.07e6 | 7.31e5 | inactive |
| Pngl | 1 | 3.66e5 | 3.89e5 | 2.72e6 | 2.68e6 | inactive |
| Pex14 | 1 | 1.80e5 | 1.61e5 | 2.45e6 | 2.43e6 | inactive |
| Pex14 | 2 | 3.02e5 | 4.84e5 | 7.96e5 | 1.59e6 | inactive |
| CG16762 | 1 | 52051 | 51327 | 8.98e5 | 7.75e5 | inactive |
| CG11458 | 1 | 4.94e5 | 8.20e5 | 7.62e5 | 9.81e5 | inactive |
| CG11537 | 1 | 9.44e5 | 1.15e6 | 1.55e6 | 1.34e6 | inactive |
| CG14868 | 1 | 3.83e5 | 2.74e5 | 2.82e6 | 2.94e6 | inactive |
| CG14868 | 2 | 2.10e5 | 1.96e5 | 5.37e5 | 8.66e5 | inactive |
| CG15548 | 1 | 3.11e5 | 2.94e5 | 2.77e6 | 2.82e6 | inactive |
| CG15548 | 2 | 3.55e5 | 2.63e5 | 7.01e5 | 4.11e5 | inactive |
| CG12470 | 1 | 2.49e5 | 3.23e5 | 3.10e6 | 3.11e6 | inactive |
| Ccdc114 | 1 | 1.08e5 | 1.33e5 | 1.75e6 | 1.82e6 | inactive |
| ENGase | 1 | 6.12e5 | 4.94e5 | 2.71e6 | 4.11e6 | inactive |
| ENGase | 2 | 3.93e5 | 2.94e5 | 2.99e6 | 2.61e6 | inactive |
| CG33272 | 1 | 98053 | 84029 | 72599 | 59552 | inactive |
| Nup214 | 1 | 5.50e5 | 6.37e5 | 1.17e6 | 7.59e5 | inactive |
| Ir84a | 1 | 33785 | 48494 | 1.17e6 | 9.86e5 | inactive |
| Ir84a | 2 | 2.13e5 | 2.25e5 | 6.37e5 | 7.73e5 | inactive |
| Eglp4 | 1 | 2.88e5 | 2.54e5 | 1.81e6 | 1.99e6 | inactive |
| Eglp4 | 2 | 3.06e5 | 4.05e5 | 9.22e5 | 8.18e5 | inactive |

A few values from the entries so far.
For “Renilla control light, replicate 2”, LKRSDH #1 has 3.00e6
Cpr62Bc #1, Renilla control light, replicate 2 → 2.59e6
gce #2, Renilla control light, replicate 2: 1.78e6
CG5653 #2, call: inactive
Result of CG12951 #1 under “firefly reporter light, replicate 2”: 1.01e5
For “call”, Ir84a #1 is entered as inactive
